# Experimental data from PubChem BioAssay AID192 (DTP/NCI, 2004).
# The list is a part of this screen's results and no random one: it is rich in T/C values a quarter to a half above the control, in often repeated tests (any T/C) and in doses without a T/C. Other doses and runs of a compound stand elsewhere. T/C is the treated group as % of the vehicle group. Some doses have a count of surviving animals in place of a T/C: the source files T/C as zero there, which appears to mark a toxic dose or a test without result, not a measured value. Some survivor counts are full or nearly so, which does not show that the dose was tolerated: survival well below the control is almost never listed, so the zero probably covers shortened survival too. Counts of survivors are from the toxicity check (mostly the fifth day) where no day follows; animals may have died later. Schedules are NCI's codes, read here as Q, the interval in days (D) or hours (H), X, the number of doses. Where survival is the endpoint, the PubChem record calls one and a half times the control and up active, and a quarter to a half above the control has no call in these data; cut-offs in other NCI protocols can differ.
# Test system: BDF1 mice, B16 melanoma ip, median survival T/C
# Assay: NCI In Vivo Anticancer Drug Screen. Data for tumor model B16 Melanoma (intraperitoneal) in B6D2F1 (BDF1) mice
# Settings: T/C endpoint: median survival time, higher T/C = longer survival
# In short: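 Values are ratios of treated (T) to vehicle-control (C) measurements of survival or tumor size in tumor-bearing mice.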
# [1] = dose: 200.0 mg/kg/injection, schedule: Q01DX009 (ip), vehicle: saline
# [2] = dose: 400.0 mg/kg/injection, schedule: Q01DX009 (ip), vehicle: saline with Tween-80
# [3] = dose: 200.0 mg/kg/injection, schedule: Q01DX009 (ip), vehicle: saline with Tween-80
# [4] = dose: 25.0 mg/kg/injection, schedule: Q01DX009 (ip), vehicle: Klucel (hydroxypropylcellulose) (HPC)
# [5] = dose: 50.0 mg/kg/injection, schedule: Q01DX009 (ip), vehicle: Klucel (hydroxypropylcellulose) (HPC)
# [6] = dose: 100.0 mg/kg/injection, schedule: Q01DX009 (ip), vehicle: Klucel (hydroxypropylcellulose) (HPC)
# [7] = dose: 200.0 mg/kg/injection, schedule: Q01DX009 (ip), vehicle: Klucel (hydroxypropylcellulose) (HPC)
# [8] = dose: 400.0 mg/kg/injection, schedule: Q01DX009 (ip), vehicle: Klucel (hydroxypropylcellulose) (HPC)
# [9] = dose: 400.0 mg/kg/injection, schedule: Q01DX009 (ip), vehicle: suspension in saline
# [10] = dose: 100.0 mg/kg/injection, schedule: Q01DX009 (ip), vehicle: saline with Tween-80
# [11] = dose: 12.5 mg/kg/injection, schedule: Q01DX009 (ip), vehicle: saline
# [12] = dose: 50.0 mg/kg/injection, schedule: Q01DX009 (ip), vehicle: saline
# [13] = dose: 100.0 mg/kg/injection, schedule: Q01DX009 (ip), vehicle: saline
# [14] = dose: 25.0 mg/kg/injection, schedule: Q01DX009 (ip), vehicle: carboxymethylcellulose (CMC)
compound,measurement,setting,value
O=S(=O)(F)c1cc(C[P+](c2ccccc2)(c2ccccc2)c2ccccc2)ccc1Cl,survivor count,"dose: 0.8 mg/kg/injection, schedule: Q04DX003 (ip), vehicle: saline with Tween-80",10 of 10
same,survivor count,"dose: 1.5 mg/kg/injection, schedule: Q04DX003 (ip), vehicle: saline with Tween-80",10 of 10
same,survivor count,"dose: 6.25 mg/kg/injection, schedule: Q04DX003 (ip), vehicle: saline with Tween-80",10 of 10
same,survivor count,"dose: 25.0 mg/kg/injection, schedule: Q04DX003 (ip), vehicle: saline with Tween-80",10 of 10
CCOC(=O)c1[nH]c(C)nc1/N=N/N(C)C,survivor count,[1],10 of 10
CCCCCCCCCCCCCCCCCC[N+](C)(C)c1nc(Cl)nc(Cl)n1,survivor count,"dose: 25.0 mg/kg/injection, schedule: Q01DX009 (ip), vehicle: other",10 of 10
same,survivor count,"dose: 50.0 mg/kg/injection, schedule: Q01DX009 (ip), vehicle: other",10 of 10
same,survivor count,"dose: 100.0 mg/kg/injection, schedule: Q01DX009 (ip), vehicle: other",1 of 10
same,survivor count,"dose: 200.0 mg/kg/injection, schedule: Q01DX009 (ip), vehicle: other",0 of 10
same,survivor count,"dose: 400.0 mg/kg/injection, schedule: Q01DX009 (ip), vehicle: other",0 of 10
O=C(/C=C/C(=O)OCC(Cl)(Cl)Cl)OCC(Cl)(Cl)Cl,survivor count,[2],10 of 10
C=CCNc1ccc(OC)cc1,survivor count,[3],6 of 10
[F][Sn]([F])([c]1ccccc1)[c]1ccccc1,survivor count,[4],0 of 10
same,survivor count,[5],0 of 10
same,survivor count,[6],0 of 10
same,survivor count,[7],0 of 10
COc1ccc2[nH]c3ccc4cc[n+](CCN5CCC(C6CCN(CC[n+]7ccc8ccc9[nH]c%10ccc(OC)cc%10c9c8c7)CC6)CC5)cc4c3c2c1,survivor count,[7],10 of 10
S=c1[nH]c2ccccc2[nH]1,survivor count,[5],10 of 10
same,survivor count,[6],8 of 10
same,survivor count,[7],4 of 10
same,survivor count,[8],0 of 10
O=C1C(=O)c2ccccc2C(O)=C1CCCc1ccc(OCc2ccccc2)cc1,survivor count,"dose: 40.0 mg/kg/injection, schedule: Q01DX009 (ip), vehicle: saline with Tween-80",6 of 10
CSc1nc(N)nc2c1ncn2C1OC(CO)C(O)C1O (stereo unspecified),T/C,"dose: 50.0 mg/kg/injection, schedule: Q01DX009 (ip), vehicle: suspension in saline",127 % of control
same,survivor count,[9],2 of 10
CCCCCCC#CC(=O)OC,survivor count,[10],10 of 10
same,survivor count,[3],10 of 10
CCOC(C[Se][Se]CC(OCC)OCC)OCC,survivor count,[11],0 of 10
CN(C)CC/C=C1\c2ccccc2Sc2ccc(C(F)(F)F)cc21,survivor count,[11],4 of 10
same,survivor count,"dose: 25.0 mg/kg/injection, schedule: Q01DX009 (ip), vehicle: saline",0 of 10
same,survivor count,[12],0 of 10
same,survivor count,[13],0 of 10
Cc1ccc(Cl)cc1NC(=O)c1cccc(C(=O)Nc2cc(Cl)ccc2C)c1,survivor count,[7],10 of 10
Nc1nc(SCc2ccccc2Cl)c2ncn(C3OC(CO)C(O)C3O)c2n1 (stereo unspecified),survivor count,[6],10 of 10
same,survivor count,[10],10 of 10
same,survivor count,[7],10 of 10
same,survivor count,[3],10 of 10
same,survivor count,[8],9 of 10
OC1CCN2CCCc3cccc1c32 (stereo unspecified),survivor count,"dose: 0.37 mg/kg/injection, schedule: Q01DX009 (ip), vehicle: DMSO",10 of 10
same,survivor count,"dose: 0.75 mg/kg/injection, schedule: Q01DX009 (ip), vehicle: DMSO",8 of 10
same,survivor count,"dose: 1.5 mg/kg/injection, schedule: Q01DX009 (ip), vehicle: DMSO",10 of 10
same,survivor count,"dose: 3.0 mg/kg/injection, schedule: Q01DX009 (ip), vehicle: DMSO",10 of 10
same,survivor count,"dose: 6.0 mg/kg/injection, schedule: Q01DX009 (ip), vehicle: DMSO",10 of 10
O=C(O)C(O)C(O)C(O)C(O)C(=O)O (stereo unspecified),survivor count,"dose: 1200.0 mg/kg/injection, schedule: Q01DX009 (ip), vehicle: Klucel (hydroxypropylcellulose) (HPC)",5 of 10
COCCOC1=C(N2CC2)C(=O)C(OCCOC)=C(N2CC2)C1=O,T/C,"dose: 1.0 mg/kg/injection, schedule: Q01DX009 (ip), vehicle: saline",129 % of control
same,T/C,"dose: 2.0 mg/kg/injection, schedule: Q01DX009 (ip), vehicle: saline",136 % of control
same,T/C,"dose: 4.0 mg/kg/injection, schedule: Q01DX009 (ip), vehicle: saline",129 % of control
same,survivor count,"dose: 8.0 mg/kg/injection, schedule: Q01DX009 (ip), vehicle: saline",10 of 10
same,survivor count,"dose: 16.0 mg/kg/injection, schedule: Q01DX009 (ip), vehicle: saline",5 of 10
same,survivor count,"dose: 32.0 mg/kg/injection, schedule: Q01DX009 (ip), vehicle: saline",7 of 10
same,survivor count,"dose: 64.0 mg/kg/injection, schedule: Q01DX009 (ip), vehicle: saline",0 of 10
COC1C(O)C(C)OC(OC2C(Oc3cccc4c(O)c5c(=O)oc6ccc(C)c7c(=O)oc(c34)c5c67)OC(C)C(O)C2O)C1O (stereo unspecified),survivor count,"dose: 12.5 mg/kg/injection, schedule: Q01DX009 (ip), vehicle: carboxymethylcellulose (CMC)",10 of 10
same,T/C,"dose: 12.5 mg/kg/injection, schedule: Q01DX009 (ip), vehicle: saline with Tween-80",146 % of control
same,T/C,[4],125 % of control
same,T/C,[14],139 % of control
same,survivor count,[14],8 of 10
same,T/C,[5],126 % of control
same,survivor count,"dose: 50.0 mg/kg/injection, schedule: Q01DX009 (ip), vehicle: carboxymethylcellulose (CMC)",9 of 10
same,survivor count,"dose: 100.0 mg/kg/injection, schedule: Q01DX009 (ip), vehicle: carboxymethylcellulose (CMC)",4 of 10
same,survivor count,[7],2 of 10
same,survivor count,"dose: 200.0 mg/kg/injection, schedule: Q01DX009 (ip), vehicle: carboxymethylcellulose (CMC)",0 of 10
same,survivor count,"dose: 256.0 mg/kg/injection, schedule: Q04DX003 (ip), vehicle: saline with Tween-80",5 of 8
CC[C@H](C)[C@H](NC(=O)OC(C)(C)C)C(=O)ON1C(=O)CCC1=O,survivor count,[2],7 of 10
CCSCCC1(CCC(C)C)C(=O)NC(=Nc2ccccc2)NC1=O (stereo unspecified),survivor count,[3],10 of 10
Cc1ccc(C)c(C2NC(=O)c3ccccc3N2)c1 (stereo unspecified),T/C,[8],133 % of control
C1CNCCN1,survivor count,[9],2 of 10
N=C(N)SCc1c2ccccc2c(CSC(=N)N)c2ccccc12,survivor count,[12],6 of 6
same,survivor count,[13],6 of 6
same,survivor count,[1],6 of 6
CC(C)(C)c1cc(C[P+](c2ccccc2)(c2ccccc2)c2ccccc2)cc(C(C)(C)C)c1O,survivor count,"dose: 6.5 mg/kg/injection, schedule: Q04DX003 (ip), vehicle: saline",10 of 10
same,survivor count,"dose: 7.0 mg/kg/injection, schedule: Q01DX009 (ip), vehicle: saline",9 of 10
same,survivor count,"dose: 10.0 mg/kg/injection, schedule: Q01DX009 (ip), vehicle: saline",5 of 10
same,survivor count,"dose: 13.0 mg/kg/injection, schedule: Q04DX003 (ip), vehicle: saline",10 of 10
CCCCNC(C)(C)C1(c2ccc(Cl)cc2)SSC(c2ccc(Cl)cc2)(C(C)(C)NCCCC)SS1 (stereo unspecified),survivor count,"dose: 75.0 mg/kg/injection, schedule: Q01DX009 (ip), vehicle: Klucel (hydroxypropylcellulose) (HPC)",8 of 10
same,survivor count,"dose: 150.0 mg/kg/injection, schedule: Q01DX009 (ip), vehicle: Klucel (hydroxypropylcellulose) (HPC)",9 of 10
same,survivor count,"dose: 300.0 mg/kg/injection, schedule: Q01DX009 (ip), vehicle: Klucel (hydroxypropylcellulose) (HPC)",8 of 10
O=[N+]([O-])c1ccc2nc(-c3ccccc3)c(-c3ccccc3)nc2c1,survivor count,[8],9 of 10
